The other results are listed elsewhere or left out.

Protein sequences, listed by entry. Tags and fused reporters are not part of them.
UniProt Q0JBA9, entry or part of it: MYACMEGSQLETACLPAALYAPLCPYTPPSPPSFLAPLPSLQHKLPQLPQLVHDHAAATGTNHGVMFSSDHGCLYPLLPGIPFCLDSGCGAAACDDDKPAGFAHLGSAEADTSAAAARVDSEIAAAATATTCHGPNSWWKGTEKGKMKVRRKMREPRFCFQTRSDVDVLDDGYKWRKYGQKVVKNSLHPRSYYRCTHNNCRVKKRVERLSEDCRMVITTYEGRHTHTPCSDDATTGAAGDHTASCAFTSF

This test deals with OsWRKY34 (Oryza sativa, UniProt Q0JBA9 1-250). The test is described as follows: protein-binding microarray (RPBM); PBS, 2% BSA, 51.3 ng/ul salmon testes DNA, 50 uM zinc acetate, 200 nM TF, 25 C, 1 h; high values mean tight binding. The note with it: protein: recombinant; tags: N-terminal polyhistidine and DsRed monomer fusion (pET32a); label: CyDye5-dUTP incorporated in the synthesized complementary strand; 3' TTTTT single-stranded linker to array surface; dsDNA, one strand shown. A digest of the protocol: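 For the binding signal, per-feature fluorescence intensity was read in arbitrary units on an Axon 4000B scanner. Before scanning, a 2% BSA-blocked custom Agilent array made double-stranded with Cy5-dUTP was washed after 1 h at 25 °C with 200 nM protein and 50 µM zinc acetate. The proteins were Ni–NTA-purified transcription factors with N-terminal polyhistidine and DsRed fusions, expressed in E. coli BL21-CodonPlus.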
Consider “AACGCTCATCTTATAGGCTGCTTCGATTCCTACTCGTCACCGGAGTCACCTAGTGCAG”, for which the binding signal was 11500 fluorescence intensity (a.u.).
Take “GCTATGTTGGACTCTCTCTTTGAACATGCATGCGAGCAATCGGAGTCACCTAGTGCAG”: the binding signal is 8100 fluorescence intensity (a.u.).
Consider “CGCCCCAGGGCCACCACCTCGCCGCCGGTAAACCCTAGCCCGGAGTCACCTAGTGCAG”, for which the binding signal was 9540 fluorescence intensity (a.u.).
For “GGGCTAGTGTTTTTATGGTGTGGTTGGGGATTCAGCTTGCCGGAGTCACCTAGTGCAG” the value was 11600 fluorescence intensity (a.u.).
For “CCCGACCACGACTCTCTCTCCTCTTCGACTCTCTCCGCAACGGAGTCACCTAGTGCAG” the value was 10700 fluorescence intensity (a.u.); for “CCTAATTTACTACTGCGTCTCTTATGTTCAGTATCTGTTCCGGAGTCACCTAGTGCAG”, 12000 fluorescence intensity (a.u.); for “GGAGGGCGGTGGCGAGGGCGGCGGTGGCGCGGATGCTGGACGGAGTCACCTAGTGCAG”, 8960 fluorescence intensity (a.u.).
“GTGCCGCCGACTTTCCTACATCGCGTCCATCCGTGTTCTTCGGAGTCACCTAGTGCAG”: the binding signal is 10200 fluorescence intensity (a.u.).
For “AAAATTGTCTTCTTTTTCTTCTCTGTTTTTCTCTCACTTACGGAGTCACCTAGTGCAG” the value was 12700 fluorescence intensity (a.u.).
For “TTAATTCTCATTCTTTAATTAATTTGGCCGTGGATTTATTCGGAGTCACCTAGTGCAG” the value was 8380 fluorescence intensity (a.u.); for “AACCCCTACGTTTTAATGCGACCCGCCATCAATTCACTCTCGGAGTCACCTAGTGCAG”, 9220 fluorescence intensity (a.u.); for “TGGGATGTTGGATTATTGTTGTACTATACATGGGTTTCAGCGGAGTCACCTAGTGCAG”, 8390 fluorescence intensity (a.u.).
As for “CTGTCTTTTTGGGGTGTACTGGATATTACTCCCTCCGTCCCGGAGTCACCTAGTGCAG”, the figure is 9380 fluorescence intensity (a.u.); as for “CCCCTATGCTAGCATGCTACACCCTGTTTTGATCTCACTACGGAGTCACCTAGTGCAG”, 10600 fluorescence intensity (a.u.).
Take “AGCTCCGGTCCTGACCTCGCCATCGCCATCTCTCCAGTCTCGGAGTCACCTAGTGCAG”: the binding signal was 10900 fluorescence intensity (a.u.).
For “TTACGTTATAGTTTTTTCAGTTCGCCCGTACTGATCATGTCGGAGTCACCTAGTGCAG” the value was 8910 fluorescence intensity (a.u.); for “GGGAAAGGCCGGGGCTTGGTGGTGGTGGTGGTGGTAAGTTCGGAGTCACCTAGTGCAG”, 14700 fluorescence intensity (a.u.).
As for “GCCAATTTTTTCTCCTCACATCTATTTTACCCTATTATTCCGGAGTCACCTAGTGCAG”, the figure is 8390 fluorescence intensity (a.u.); as for “TTCCGTCTCGTATTCGCTCCGTATCTGTATTCGATAATATCGGAGTCACCTAGTGCAG”, 8040 fluorescence intensity (a.u.).
Regarding “CTATCTAACTACGAACTTGCCATTTCCCTACAGTACATATCGGAGTCACCTAGTGCAG”, the binding signal was 8370 fluorescence intensity (a.u.).
As to “TGACGCTAAGATGTACCTTTTGATCATTTTTCTTTGAGGACGGAGTCACCTAGTGCAG”, the binding signal is 8240 fluorescence intensity (a.u.).
As for “TTCTTGTGGTCTACTGGCCAAAATTTTGACTCCTTCAGTTCGGAGTCACCTAGTGCAG”, the figure is 9450 fluorescence intensity (a.u.); as for “GCGCTTAACTTTGGTCTAATTTTCATTTCTTAATCTTCATCGGAGTCACCTAGTGCAG”, 8820 fluorescence intensity (a.u.).
For “TGACTTTTTCTCACATGTTTGACCATTCGTCTTATTAAAACGGAGTCACCTAGTGCAG” the value was 12500 fluorescence intensity (a.u.); for “TATGCTGGTTCTGTTGTTGTGCAAGAAACTATTGCCTTACCGGAGTCACCTAGTGCAG”, 8060 fluorescence intensity (a.u.).
As for “CTTTATTTTTTTTGAGTTTTTCTTTCCAGGTTTCTCGATCCGGAGTCACCTAGTGCAG”, the figure is 9110 fluorescence intensity (a.u.).
For the sequence “TGACTTTTTCTCACATGTTTGACCATTCGTCTTATTCAAACGGAGTCACCTAGTGCAG”, the binding signal was 10900 ± 914 fluorescence intensity (a.u.).
As for “CTCTCTTTCTTGGCCGTCTCTCTTATATCCCTCAATTTAACGGAGTCACCTAGTGCAG”, the figure is 14900 fluorescence intensity (a.u.).
For “GGTATCTTCAGTTCTGCACGCCTATTTAACCGCCGAATTCCGGAGTCACCTAGTGCAG” the value was 10900 fluorescence intensity (a.u.).
As for “CAACGCTAATATCATCACCGTCTCTGTCACACCTTCCAAACGGAGTCACCTAGTGCAG”, the figure is 8570 fluorescence intensity (a.u.).
With “ATAAGTTTCTCATCATGCTTTATTTATATTATTTTCTTTTCGGAGTCACCTAGTGCAG”, the binding signal is 10900 fluorescence intensity (a.u.).
As for “CGTCTGCCCTGTCCTCTCCTCATCGACCGGCGCCGGAAGGCGGAGTCACCTAGTGCAG”, the figure is 8110 fluorescence intensity (a.u.); as for “TACTTTGAGCTCCGGTCATTATCGATCTTGACCAGAGAGACGGAGTCACCTAGTGCAG”, 8070 fluorescence intensity (a.u.); as for “TGGGCCCATATGCTTTATTGTTTTTCCGGACCCAATTGTCCGGAGTCACCTAGTGCAG”, 8270 fluorescence intensity (a.u.).
In the case of “TTGCTTCCACTCATGCAACTGCTTTTGCACAACTTGATGACGGAGTCACCTAGTGCAG”, the binding signal was 9850 fluorescence intensity (a.u.).
As for “ATCAATGCCTACTAATATGATTCGTGTTATTGTCCGTGTTCGGAGTCACCTAGTGCAG”, the figure is 10100 fluorescence intensity (a.u.).
For “CTCTCCCACTCTTCTCTCTGGATTGGGCAAGCCGGCCGGTCGGAGTCACCTAGTGCAG” the value was 8860 fluorescence intensity (a.u.); for “TTCCTCTCCCGACCCTGACGTGGTTCACTTTGAGTATCGCCGGAGTCACCTAGTGCAG”, 15900 fluorescence intensity (a.u.); for “TACATGTATCTAGCCATGTTTTCATATGAATTATTAGTTCCGGAGTCACCTAGTGCAG”, 10200 fluorescence intensity (a.u.).
As for “GTGATTCCTCCGCGCTTCACTCCACCACCACCGCTGTACCCGGAGTCACCTAGTGCAG”, the figure is 8090 fluorescence intensity (a.u.); as for “CTAACCCTAACTTGGCCTTTTTTTTAAGGGAATGCTAGTCCGGAGTCACCTAGTGCAG”, 9150 fluorescence intensity (a.u.).
Regarding “ATCGGGGTTGTGGAAGTCCAGATTTGGATCCTGCAGGCTCCGGAGTCACCTAGTGCAG”, the binding signal is 8160 fluorescence intensity (a.u.).

Values taken from paper PMC7819943, “Rice protein-binding microarrays: a tool to detect cis-acting elements near promoter regions in rice”.
